These are yes or no findings as the source states them, for the method shown. In cells and extracts the contact can be indirect. Here binding means that the protein was enriched with, or labelled near, the bait; the list need not be complete. Where a sequence is shown, tags or fusion partners need not be part of it.
Molecular target: T1, TR4-BirA* fusion protein (human) (UniProt P49116)
T1 sequence: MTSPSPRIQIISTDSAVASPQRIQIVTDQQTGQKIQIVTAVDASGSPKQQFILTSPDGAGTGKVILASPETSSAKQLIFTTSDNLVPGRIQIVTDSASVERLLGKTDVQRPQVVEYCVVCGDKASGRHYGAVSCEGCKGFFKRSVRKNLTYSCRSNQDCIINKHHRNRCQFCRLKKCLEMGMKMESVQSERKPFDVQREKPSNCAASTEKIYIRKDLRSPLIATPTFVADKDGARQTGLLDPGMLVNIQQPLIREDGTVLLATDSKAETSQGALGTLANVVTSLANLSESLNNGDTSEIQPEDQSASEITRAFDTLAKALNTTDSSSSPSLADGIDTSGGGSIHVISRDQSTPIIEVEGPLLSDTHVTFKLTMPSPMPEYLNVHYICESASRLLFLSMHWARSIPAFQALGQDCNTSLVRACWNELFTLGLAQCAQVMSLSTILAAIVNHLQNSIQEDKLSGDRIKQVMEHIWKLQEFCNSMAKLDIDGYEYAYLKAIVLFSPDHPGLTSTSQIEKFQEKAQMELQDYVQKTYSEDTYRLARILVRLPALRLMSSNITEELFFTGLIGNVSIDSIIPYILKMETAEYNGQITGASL
Test: proximity labelling

Amino acid sequences for entries named in this document (tags omitted).
UniProt Q92560: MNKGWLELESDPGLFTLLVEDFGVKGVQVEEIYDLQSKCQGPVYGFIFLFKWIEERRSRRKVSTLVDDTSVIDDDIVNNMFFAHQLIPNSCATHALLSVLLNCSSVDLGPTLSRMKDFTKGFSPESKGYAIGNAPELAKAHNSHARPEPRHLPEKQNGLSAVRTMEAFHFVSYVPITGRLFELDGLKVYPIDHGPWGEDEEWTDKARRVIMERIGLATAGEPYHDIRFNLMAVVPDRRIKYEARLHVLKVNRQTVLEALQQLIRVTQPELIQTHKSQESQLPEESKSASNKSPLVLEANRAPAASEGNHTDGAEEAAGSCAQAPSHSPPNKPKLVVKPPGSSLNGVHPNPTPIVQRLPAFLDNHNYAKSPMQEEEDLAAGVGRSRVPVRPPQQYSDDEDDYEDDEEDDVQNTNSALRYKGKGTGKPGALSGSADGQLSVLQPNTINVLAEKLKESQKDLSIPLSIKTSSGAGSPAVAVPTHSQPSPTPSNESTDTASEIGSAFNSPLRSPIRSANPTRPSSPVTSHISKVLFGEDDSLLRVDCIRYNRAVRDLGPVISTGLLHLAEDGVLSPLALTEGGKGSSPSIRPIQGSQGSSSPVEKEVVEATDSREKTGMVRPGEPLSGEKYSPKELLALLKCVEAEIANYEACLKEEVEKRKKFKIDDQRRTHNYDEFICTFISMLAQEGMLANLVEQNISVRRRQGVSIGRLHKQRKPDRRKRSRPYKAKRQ
UniProt O75376: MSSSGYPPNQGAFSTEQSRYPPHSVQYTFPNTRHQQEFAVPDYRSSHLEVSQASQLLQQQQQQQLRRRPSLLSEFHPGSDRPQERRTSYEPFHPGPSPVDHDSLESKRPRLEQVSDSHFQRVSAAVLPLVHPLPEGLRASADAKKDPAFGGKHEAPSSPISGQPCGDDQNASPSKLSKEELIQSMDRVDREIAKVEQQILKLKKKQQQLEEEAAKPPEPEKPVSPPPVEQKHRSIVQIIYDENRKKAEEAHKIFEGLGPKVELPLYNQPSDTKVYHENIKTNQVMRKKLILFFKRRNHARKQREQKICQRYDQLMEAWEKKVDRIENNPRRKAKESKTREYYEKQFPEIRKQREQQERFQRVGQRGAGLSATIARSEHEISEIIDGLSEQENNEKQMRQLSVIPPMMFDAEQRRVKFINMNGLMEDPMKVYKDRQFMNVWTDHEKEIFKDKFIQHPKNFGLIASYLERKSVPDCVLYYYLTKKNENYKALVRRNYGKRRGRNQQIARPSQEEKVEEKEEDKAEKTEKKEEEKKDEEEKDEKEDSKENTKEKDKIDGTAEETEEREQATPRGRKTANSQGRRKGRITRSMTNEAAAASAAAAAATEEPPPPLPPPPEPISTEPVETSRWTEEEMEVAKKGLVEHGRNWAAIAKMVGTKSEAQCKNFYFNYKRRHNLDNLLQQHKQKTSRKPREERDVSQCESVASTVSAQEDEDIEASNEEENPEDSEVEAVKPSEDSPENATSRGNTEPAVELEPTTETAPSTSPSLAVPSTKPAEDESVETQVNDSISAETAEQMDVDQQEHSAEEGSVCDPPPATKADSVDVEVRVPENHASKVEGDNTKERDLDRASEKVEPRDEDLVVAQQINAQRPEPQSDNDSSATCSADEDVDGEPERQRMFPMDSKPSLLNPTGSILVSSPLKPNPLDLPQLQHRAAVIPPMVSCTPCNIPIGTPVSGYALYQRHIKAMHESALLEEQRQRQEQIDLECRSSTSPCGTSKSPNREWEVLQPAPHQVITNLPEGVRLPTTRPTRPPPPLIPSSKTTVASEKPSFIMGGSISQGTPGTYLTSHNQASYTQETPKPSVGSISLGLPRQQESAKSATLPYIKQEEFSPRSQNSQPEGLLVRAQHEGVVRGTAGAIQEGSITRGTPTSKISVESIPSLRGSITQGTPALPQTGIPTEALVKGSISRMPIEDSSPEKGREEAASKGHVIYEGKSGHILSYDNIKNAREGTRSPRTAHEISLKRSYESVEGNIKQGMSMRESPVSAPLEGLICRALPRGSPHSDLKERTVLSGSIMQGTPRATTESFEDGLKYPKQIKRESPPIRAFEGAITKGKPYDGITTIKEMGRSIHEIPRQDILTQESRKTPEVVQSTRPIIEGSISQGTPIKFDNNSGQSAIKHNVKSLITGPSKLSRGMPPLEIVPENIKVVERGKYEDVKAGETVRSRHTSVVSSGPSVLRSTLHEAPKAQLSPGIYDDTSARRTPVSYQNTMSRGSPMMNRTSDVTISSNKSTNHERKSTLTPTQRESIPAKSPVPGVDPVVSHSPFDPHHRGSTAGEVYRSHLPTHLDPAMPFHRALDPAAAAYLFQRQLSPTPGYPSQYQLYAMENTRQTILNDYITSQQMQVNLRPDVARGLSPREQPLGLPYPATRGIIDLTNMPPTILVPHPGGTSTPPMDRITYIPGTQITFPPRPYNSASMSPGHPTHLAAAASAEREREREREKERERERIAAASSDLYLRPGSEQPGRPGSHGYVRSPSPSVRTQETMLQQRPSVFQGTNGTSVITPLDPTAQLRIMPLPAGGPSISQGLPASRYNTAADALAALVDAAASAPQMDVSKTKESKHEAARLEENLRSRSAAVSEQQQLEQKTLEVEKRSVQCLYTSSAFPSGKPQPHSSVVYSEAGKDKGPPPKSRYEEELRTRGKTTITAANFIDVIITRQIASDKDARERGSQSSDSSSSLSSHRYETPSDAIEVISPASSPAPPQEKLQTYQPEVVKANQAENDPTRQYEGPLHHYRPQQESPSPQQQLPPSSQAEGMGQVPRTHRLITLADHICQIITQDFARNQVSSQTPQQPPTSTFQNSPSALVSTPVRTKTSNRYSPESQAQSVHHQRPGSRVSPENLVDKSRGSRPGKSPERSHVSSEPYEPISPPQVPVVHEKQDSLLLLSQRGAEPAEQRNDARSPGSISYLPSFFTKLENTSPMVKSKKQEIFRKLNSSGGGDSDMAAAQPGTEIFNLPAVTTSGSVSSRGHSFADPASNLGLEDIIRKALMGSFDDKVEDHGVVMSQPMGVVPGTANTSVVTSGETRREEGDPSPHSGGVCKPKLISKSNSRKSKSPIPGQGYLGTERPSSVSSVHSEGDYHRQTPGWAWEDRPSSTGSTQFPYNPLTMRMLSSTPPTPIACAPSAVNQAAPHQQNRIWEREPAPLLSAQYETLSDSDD

Row | binding | Substance
1 | binds | BRCA1 associated protein-1 (BAP1), endogenous (from UniProt Q92560 1-729) (enzyme)
2 | binds | HCF1, endogenous (human (endogenous in HUDEP-2))
3 | binds | nuclear receptor corepressor-1 (NCoR1), endogenous (from UniProt O75376 1-2440)

Source: article doi:10.1101/346619
